Laboratory results: publication PMC6399936
Results are given in words; binding and its absence hold for the method and conditions named. Binding seen in cells or lysates may run through a third protein. Some results given as binding are weak or reduced against the parent protein; the word gives no strength. For some assays here: Where a sequence is shown, tags or fusion partners need not be part of it.

Chains of the proteins cited; added tags and fusions are not shown. Residues count along the entry.
UniProt P45481: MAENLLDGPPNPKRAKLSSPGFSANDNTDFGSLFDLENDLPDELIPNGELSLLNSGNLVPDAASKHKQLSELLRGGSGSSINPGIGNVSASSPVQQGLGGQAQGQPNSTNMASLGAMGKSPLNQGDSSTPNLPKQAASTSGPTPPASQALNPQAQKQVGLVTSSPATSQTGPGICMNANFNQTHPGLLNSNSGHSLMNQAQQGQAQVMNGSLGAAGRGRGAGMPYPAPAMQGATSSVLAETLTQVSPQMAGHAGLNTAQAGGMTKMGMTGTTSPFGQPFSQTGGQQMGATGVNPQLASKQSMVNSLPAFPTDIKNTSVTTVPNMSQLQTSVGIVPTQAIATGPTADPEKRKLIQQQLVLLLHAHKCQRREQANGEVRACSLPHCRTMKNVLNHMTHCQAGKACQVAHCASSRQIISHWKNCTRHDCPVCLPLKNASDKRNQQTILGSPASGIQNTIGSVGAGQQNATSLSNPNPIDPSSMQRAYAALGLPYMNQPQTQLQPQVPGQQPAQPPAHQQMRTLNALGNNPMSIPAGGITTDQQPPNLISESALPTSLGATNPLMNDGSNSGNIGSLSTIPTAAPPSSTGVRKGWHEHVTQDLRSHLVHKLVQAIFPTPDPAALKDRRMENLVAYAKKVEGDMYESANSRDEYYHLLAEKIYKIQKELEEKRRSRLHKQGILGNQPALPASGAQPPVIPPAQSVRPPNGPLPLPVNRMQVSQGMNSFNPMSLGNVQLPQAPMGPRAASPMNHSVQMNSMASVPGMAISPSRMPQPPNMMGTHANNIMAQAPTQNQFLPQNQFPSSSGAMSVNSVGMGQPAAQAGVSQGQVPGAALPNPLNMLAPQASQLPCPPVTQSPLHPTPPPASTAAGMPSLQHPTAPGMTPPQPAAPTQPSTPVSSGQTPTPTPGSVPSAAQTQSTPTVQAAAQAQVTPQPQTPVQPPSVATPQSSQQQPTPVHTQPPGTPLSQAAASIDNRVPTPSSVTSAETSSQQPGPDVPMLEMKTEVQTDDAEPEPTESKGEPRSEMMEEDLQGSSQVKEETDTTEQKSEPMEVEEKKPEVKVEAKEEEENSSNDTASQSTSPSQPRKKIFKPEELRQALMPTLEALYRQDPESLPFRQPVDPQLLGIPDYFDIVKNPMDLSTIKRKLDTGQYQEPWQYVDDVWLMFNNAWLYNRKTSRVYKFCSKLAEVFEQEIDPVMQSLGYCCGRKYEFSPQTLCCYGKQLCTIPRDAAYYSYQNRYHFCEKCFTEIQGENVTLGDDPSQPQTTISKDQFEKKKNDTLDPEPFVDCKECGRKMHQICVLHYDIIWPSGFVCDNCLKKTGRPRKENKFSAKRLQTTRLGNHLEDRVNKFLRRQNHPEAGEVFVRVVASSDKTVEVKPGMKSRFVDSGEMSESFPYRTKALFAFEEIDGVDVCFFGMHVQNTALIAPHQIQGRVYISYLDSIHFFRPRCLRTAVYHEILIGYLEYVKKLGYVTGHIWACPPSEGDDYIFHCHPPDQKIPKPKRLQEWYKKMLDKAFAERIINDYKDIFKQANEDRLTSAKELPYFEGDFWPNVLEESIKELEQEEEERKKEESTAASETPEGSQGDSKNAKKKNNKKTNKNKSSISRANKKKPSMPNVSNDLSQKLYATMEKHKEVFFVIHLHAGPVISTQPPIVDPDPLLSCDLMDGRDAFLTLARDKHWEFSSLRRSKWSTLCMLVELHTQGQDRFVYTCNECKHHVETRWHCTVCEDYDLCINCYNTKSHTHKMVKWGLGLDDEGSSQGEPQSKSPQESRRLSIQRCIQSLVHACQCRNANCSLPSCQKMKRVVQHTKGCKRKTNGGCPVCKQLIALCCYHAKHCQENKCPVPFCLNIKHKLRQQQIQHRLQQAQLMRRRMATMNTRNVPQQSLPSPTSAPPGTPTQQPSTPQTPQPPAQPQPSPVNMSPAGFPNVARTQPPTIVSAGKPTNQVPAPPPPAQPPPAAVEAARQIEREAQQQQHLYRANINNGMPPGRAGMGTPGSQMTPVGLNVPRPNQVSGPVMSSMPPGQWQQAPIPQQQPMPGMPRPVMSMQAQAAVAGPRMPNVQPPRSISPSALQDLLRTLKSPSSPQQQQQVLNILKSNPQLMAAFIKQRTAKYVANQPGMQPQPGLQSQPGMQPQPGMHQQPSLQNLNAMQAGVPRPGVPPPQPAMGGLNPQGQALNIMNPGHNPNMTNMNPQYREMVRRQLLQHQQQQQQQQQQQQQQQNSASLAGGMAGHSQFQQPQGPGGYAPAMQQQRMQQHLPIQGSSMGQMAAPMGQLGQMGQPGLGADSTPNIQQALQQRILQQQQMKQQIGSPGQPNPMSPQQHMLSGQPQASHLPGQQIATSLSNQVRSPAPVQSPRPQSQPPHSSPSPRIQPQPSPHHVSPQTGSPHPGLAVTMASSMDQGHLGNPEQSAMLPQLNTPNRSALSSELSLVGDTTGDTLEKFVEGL
UniProt Q60751, residues 31-1373: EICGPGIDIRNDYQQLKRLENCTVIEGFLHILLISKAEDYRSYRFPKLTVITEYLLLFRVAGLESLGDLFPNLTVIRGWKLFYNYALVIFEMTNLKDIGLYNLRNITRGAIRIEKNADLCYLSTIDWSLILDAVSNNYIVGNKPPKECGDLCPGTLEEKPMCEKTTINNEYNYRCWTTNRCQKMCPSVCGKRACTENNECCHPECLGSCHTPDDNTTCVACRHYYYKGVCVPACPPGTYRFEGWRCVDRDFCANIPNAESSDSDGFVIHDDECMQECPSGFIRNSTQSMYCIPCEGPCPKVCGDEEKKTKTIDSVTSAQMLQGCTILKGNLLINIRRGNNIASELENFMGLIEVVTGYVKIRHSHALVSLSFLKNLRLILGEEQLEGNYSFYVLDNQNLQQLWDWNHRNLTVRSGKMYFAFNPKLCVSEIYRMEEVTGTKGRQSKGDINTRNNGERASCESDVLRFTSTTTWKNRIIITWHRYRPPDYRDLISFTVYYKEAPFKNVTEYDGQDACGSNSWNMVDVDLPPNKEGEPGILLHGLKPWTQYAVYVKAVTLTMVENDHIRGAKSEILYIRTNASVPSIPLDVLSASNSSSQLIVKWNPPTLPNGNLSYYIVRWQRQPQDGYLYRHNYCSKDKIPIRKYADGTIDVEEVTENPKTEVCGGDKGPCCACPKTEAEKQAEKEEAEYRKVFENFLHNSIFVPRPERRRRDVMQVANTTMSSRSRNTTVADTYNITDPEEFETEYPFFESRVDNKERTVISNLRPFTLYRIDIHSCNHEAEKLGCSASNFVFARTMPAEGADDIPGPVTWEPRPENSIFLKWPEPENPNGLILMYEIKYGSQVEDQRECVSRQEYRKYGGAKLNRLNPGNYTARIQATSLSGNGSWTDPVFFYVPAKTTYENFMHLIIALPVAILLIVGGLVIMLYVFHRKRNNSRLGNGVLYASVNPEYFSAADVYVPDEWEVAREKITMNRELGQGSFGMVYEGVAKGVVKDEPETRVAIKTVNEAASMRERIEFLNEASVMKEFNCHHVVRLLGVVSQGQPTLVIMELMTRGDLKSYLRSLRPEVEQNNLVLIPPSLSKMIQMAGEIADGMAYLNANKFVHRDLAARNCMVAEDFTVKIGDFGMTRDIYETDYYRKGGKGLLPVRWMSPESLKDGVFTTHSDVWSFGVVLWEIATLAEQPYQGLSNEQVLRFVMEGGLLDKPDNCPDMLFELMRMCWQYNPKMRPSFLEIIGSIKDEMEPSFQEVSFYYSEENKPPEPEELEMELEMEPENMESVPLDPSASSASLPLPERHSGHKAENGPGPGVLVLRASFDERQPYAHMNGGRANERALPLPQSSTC

T1: Ca2+/calmodulin-dependent kinase IV (mouse (endogenous in E19 embryo brain of 3xTg AD mice)) (UniProt P08414)
T1 sequence: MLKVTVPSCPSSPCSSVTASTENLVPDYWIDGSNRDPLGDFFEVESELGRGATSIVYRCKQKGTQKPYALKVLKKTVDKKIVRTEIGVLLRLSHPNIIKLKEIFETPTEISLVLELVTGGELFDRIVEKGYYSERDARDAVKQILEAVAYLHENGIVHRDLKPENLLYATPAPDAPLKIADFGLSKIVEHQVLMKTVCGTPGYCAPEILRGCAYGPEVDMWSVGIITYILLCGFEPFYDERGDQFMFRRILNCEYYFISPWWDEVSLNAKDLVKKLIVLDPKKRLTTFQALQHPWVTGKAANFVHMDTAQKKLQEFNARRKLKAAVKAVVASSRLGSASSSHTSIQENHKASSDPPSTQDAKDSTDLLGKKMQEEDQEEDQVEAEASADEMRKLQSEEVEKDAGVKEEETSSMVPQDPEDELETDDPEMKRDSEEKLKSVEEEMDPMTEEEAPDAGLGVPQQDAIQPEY

B1: Ca2+/calmodulin-dependent kinase IV (enzyme, UniProt P08414 1-469)
chain: T1 sequence

Assays:
[1] = target: T1, Ca2+/calmodulin-dependent kinase IV (mouse (endogenous in E19 embryo brain of 3xTg AD mice)); assay: co-IP; E19 embryo extracts of control and GEE-exposed 3xTg AD mice; 600 ug total proteins with 10 ug anti-CaMKIV (Santa Cruz) or anti-IGF1R (Proteintech) overnight at 4 °C, protein A + G agarose; western blotting with anti-CaMKIV or IGF1R
[2] = target: CREB-binding protein (mouse (endogenous in E19 embryo brain of 3xTg AD mice)) (UniProt P45481); assay: co-IP; E19 embryo brain (hippocampi) lysate of control and GEE-exposed 3xTg AD mice; about 600 ug total protein with 10 ug anti-CBP or anti-CaMKIV overnight at 4 °C, protein A + G agarose; western blotting

Molecule	binding [1]	binding [2]
insulin-like growth factor 1 receptor (from UniProt Q60751 31-1373)	binds	
B1		binds
